Laboratory results from patent US5034510A (Shin-Etsu Chemical Co., Ltd., priority 1986, dated 1991).
The star is where a group is joined. Tos = Cc1ccc(S(=O)(=O)*)cc1; ClZ = O=C(OCc1ccccc1Cl)*; OPac = O=C(CO*)c1ccccc1; Boc = CC(C)(C)OC(=O)*; OcHex = C1CCC(O*)CC1; OBn = c1ccc(CO*)cc1

Experiment: general procedure: solution-phase peptide synthesis; OSu/ONp active esters; WSCI/HOBt for fragment condensation
Conditions: coupling step, HCl

Substance	step yield [%]
Boc-K(ClZ)IFK(ClZ)-OPac	98.6
Boc-K(ClZ)IE(OBn)K(ClZ)MG-OPac	87.5
Boc-Arg(Tos)-Trp(CHO)-Lys(ClZ)-Ile-Phe-Lys(ClZ)-Lys-(ClZ)-Ile-Glu(OBzl)-Lys(ClZ)-Met-Gly-OPac	77.0
Boc-IE(OBn)K(ClZ)MG-OPac	81.6
Boc-Trp(CHO)-Lys(ClZ)-Ile-Phe-Lys(ClZ)-OPac	81.7
Boc-Arg(Tos)-Trp(CHO)-Lys(ClZ)-Ile-Phe-Lys(ClZ)-OPac	76.8
Boc-IR(Tos)D(OcHex)G-OPac	96.8
Boc-Glu(OBzl)-Lyz(ClZ)-Met-Gly-OPac	85.9
Boc-NIR(Tos)D(OcHex)G-OPac	80.2
Boc-R(Tos)NIR(Tos)D(OcHex)G-OPac	80.7
Boc-Arg(Tos)-Trp(CHO)-Lys(ClZ)-Ile-Phe-Lys(ClZ)-Lys(ClZ)-Ile-Glu(OBzl)-Lys(ClZ)-Met-Gly-Arg(Tos)-Asn-Ile-Arg(Tos)-Asp(OcHex)-Gly-OPac	60.3

Same assay, conditions: late stage modification step, HCl

Substance	step yield [%]
HCl.H-Arg(Tos)-Asn-Ile-Arg(Tos)-Asp(OcHex)-Gly-OPac	95.4
HCl.H-Lys(ClZ)-Ile-Phe-Lys(ClZ)-OPac	97.2
HCl-H-Ile-Arg(Tos)-Asp(OcHex)-Gly-OPac	98.5
HCl.H-Lys(ClZ)-Ile-Glu(OBzl)-Lys(ClZ)-Met-Gly-OPac	97.1
Boc-Arg(Tos)-Trp(CHO)-Lys(ClZ)-Ile-Phe-Lys(ClZ)-Lys(ClZ)-Ile-Glu(OBzl)-Lys(ClZ)-Met-Gly-OH	89.8
HCl.H-Glu(OBzl)-Lys(ClZ)-Met-Gly-OPac	82.9
TFA.H-Trp(CHO)-Lys(ClZ)-Ile-Phe-Lys(ClZ)-OPac	83.9
HCl.H-Ile-Glu(OBzl)-Lys(ClZ)-Met-Gly-OPac	96.6
Boc-Arg(Tos)-Trp(CHO)-Lys(ClZ)-Ile-Phe-Lys(ClZ)-Lys(ClZ)-Ile-Glu(OBzl)-Lys(ClZ)-Met-Gly-Arg(Tos)-Asn-Ile-Arg(Tos)-Asp(OcHex)-Gly-OH	98.5
Boc-Arg(Tos)-Trp(CHO)-Lys(ClZ)-Ile-Phe-Lys(ClZ)-OH	94.0
